No constants are given. Whether binding was seen depends on the method and setting. Some results given as binding are weak or reduced against the parent protein; the word gives no strength.

The test concerns the target T1, wild-type rat TRPV2 (rat), Q9WUD2.
T1 chain: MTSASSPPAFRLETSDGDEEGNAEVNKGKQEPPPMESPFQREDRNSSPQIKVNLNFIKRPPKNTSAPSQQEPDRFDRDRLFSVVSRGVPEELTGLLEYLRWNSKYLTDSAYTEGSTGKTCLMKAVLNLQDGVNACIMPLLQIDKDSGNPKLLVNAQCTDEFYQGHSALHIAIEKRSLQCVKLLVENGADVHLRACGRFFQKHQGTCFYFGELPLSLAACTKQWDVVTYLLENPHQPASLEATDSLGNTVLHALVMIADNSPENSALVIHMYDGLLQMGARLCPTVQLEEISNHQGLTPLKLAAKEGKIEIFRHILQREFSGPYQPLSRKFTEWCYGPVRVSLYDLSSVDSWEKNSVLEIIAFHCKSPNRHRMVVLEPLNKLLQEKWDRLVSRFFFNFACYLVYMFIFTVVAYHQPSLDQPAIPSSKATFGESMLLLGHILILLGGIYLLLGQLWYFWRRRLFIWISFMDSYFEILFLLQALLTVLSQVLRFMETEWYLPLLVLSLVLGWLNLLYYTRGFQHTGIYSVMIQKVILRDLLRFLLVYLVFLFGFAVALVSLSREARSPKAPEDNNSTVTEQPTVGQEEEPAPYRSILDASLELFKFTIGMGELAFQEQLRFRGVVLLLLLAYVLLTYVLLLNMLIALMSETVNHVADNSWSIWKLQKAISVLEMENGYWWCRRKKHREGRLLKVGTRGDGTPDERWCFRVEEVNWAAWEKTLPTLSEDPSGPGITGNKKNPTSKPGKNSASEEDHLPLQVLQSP
Nature of the test: cryo-EM structure; channel tetramer in MSP2N2/soy polar lipid nanodiscs, 20 mM Hepes pH 8.0, 150 mM NaCl, 2 mM TCEP; with 1 mM ruthenium red, with or without activator (1 mM 2-APB for TRPV2; 400 uM diC8-PI(4,5)P2 for TRPV5); both purified. Conditions: remark: other sources report otherwise.

B1: wild-type rat TRPV2, Q9WUD2 1-761 (protein)
chain: T1 chain
Consider B1, for which the binding entry is “binds”.

Source of the values: publication PMC10897480, “Molecular details of ruthenium red pore block in TRPV channels” (EMBO Reports, 2024).
